Laboratory results taken from patent US10828349B2, “Treatment of microbial infections” (NATIONAL UNIVERSITY OF IRELAND, GALWAY, priority 2011, dated 2020).

Details: for thiocyanate level read after 24 hours: lactoperoxidase, glucose oxidase

## N#C[S-].[K+] [Thiocyanate, potassium thiocyanate]
1× (1.36 mM) dose incubated overnight with glucose
  thiocyanate level read after 24 hours: 0.17 × dose
1× and 5× doses, 24 hours
  drop in thiocyanate levels: 80-85%
5× (6.8 mM) dose incubated overnight with glucose
  thiocyanate level read after 24 hours: 1.1 × dose

Where two headings read alike, the source gives them in different places.
